# Measurements as given in PubChem BioAssay AID1117319 (Southern Research Institute, 2015).
# Amino acid sequences for entries named in this document (tags omitted). A change or cut given only in a name is not applied to a line headed by its entry.
# UniProt P69720: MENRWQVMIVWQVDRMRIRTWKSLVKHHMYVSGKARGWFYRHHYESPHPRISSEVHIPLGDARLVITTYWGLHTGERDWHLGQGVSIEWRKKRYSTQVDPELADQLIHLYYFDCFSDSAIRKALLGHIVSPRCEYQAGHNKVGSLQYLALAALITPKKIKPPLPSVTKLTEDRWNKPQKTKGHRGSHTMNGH
# UniProt P69721: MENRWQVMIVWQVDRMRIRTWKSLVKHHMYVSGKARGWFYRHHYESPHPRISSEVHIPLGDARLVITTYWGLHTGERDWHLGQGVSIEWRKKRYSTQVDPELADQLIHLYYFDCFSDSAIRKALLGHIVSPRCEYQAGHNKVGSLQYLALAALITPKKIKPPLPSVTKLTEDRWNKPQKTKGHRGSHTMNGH
# UniProt P69722: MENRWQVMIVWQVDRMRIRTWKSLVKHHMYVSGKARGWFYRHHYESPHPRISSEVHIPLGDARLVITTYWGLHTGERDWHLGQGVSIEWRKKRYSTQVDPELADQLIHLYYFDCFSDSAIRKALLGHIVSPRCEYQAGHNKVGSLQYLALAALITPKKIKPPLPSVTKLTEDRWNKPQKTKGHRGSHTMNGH
# UniProt P69723: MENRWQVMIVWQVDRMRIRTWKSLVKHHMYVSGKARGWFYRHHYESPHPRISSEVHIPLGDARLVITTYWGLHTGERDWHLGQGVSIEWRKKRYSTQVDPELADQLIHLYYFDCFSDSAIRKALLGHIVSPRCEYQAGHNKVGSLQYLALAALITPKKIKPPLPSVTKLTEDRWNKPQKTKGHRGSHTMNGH
# UniProt Q9HC16: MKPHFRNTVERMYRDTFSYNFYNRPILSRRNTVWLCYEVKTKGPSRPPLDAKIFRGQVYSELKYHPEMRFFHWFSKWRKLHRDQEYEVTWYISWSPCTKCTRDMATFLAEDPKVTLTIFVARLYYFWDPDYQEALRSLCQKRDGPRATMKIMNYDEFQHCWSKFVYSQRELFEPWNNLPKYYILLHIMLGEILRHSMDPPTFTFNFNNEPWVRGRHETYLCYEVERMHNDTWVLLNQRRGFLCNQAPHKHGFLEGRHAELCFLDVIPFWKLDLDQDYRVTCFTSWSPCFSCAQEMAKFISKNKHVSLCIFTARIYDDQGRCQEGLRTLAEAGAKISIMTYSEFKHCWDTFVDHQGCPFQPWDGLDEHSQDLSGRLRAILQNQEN
# “And” between values parts separate entries of the source, which are not always exact repeats. Equal entries are not always repeated. The campaign covered roughly 260,000 compounds. About 1,500 (0.58%) were called active. The inconclusive results got no clear call from the source; some entries with a clear call stand among them for comparison.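 The calls were made as follows: active = inhibition above a set limit at one or more doses, reproduced on every date tested; inconclusive = results disagree between test dates, or hit never tested in dose response; inactive = the rest.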
# Target: Virion infectivity factor (Human immunodeficiency virus type 1 group M subtype B (isolate BH10)) + Virion infectivity factor (Human immunodeficiency virus type 1 group M subtype B (isolate BRU/LAI)) + Virion infectivity factor (Human immunodeficiency virus type 1 group M subtype B (isolate PCV12)) + Virion infectivity factor (Human immunodeficiency virus type 1 group M subtype B (isolate HXB2)) + DNA dC->dU-editing enzyme APOBEC-3G (Homo sapiens) (UniProt P69720+P69721+P69722+P69723+Q9HC16)
# Assay: inhibitors of Vif binding to APOBEC3G peptide, primary screen, biochemical, TR-FRET, GST-Vif 1-94, biotin-A3G peptide, dose response retest (AID 1117319);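 also: Vif residues 1-94 fused to GST binding biotinylated APOBEC3G peptide 110-148; 0% = full assay without inhibitor and 100% = GST in place of GST-Vif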
# Details: stronger effect = higher value
row,Compound,inhibition
1,O=C(COc1cccc(NC(=O)c2ccco2)c1)c1ccccc1,inconclusive: 43.3%
2,CCc1c(C)nc(N)nc1Cl,inconclusive: 58.8%
3,Cn1c(CCC(=O)OCC(=O)NCc2ccccc2Cl)nc(=O)c2ccccc21,inconclusive: 38.2%
4,CC(OC(=O)/C=C/c1ccc2ccccc2n1)C(=O)N(C)c1ccccc1 (stereo unspecified),inactive: 1.44%
5,C=CCN1CN(S(=O)(=O)c2cccs2)c2nc3ccccc3nc21,inconclusive: 38.7%
6,C/C(=N/NC(=O)c1ccccn1)c1ccco1,inconclusive: 33.3%
7,CN(c1ccc(C(=O)NCc2cccnc2)cc1)S(C)(=O)=O,inconclusive: 36.5%
8,Cc1ccc(S(=O)(=O)Nc2nc3ccccc3nc2NCc2ccco2)cc1C,inconclusive: 18.2%
9,CCOc1ccccc1N(CC(=O)Nc1ccccc1C(=O)NCc1ccco1)S(C)(=O)=O,inconclusive: 34.1%
10,Nc1nnnn1N=C1CCCCC1,inconclusive: 43.1%
11,Nc1ccccc1SCC(=O)Nc1ccc(N2CCOCC2)cc1,inconclusive: 36.7%
12,Oc1ccc2ccccc2c1C1Nc2cccc3cccc(c23)N1,inconclusive: 9.43%
13,O=[N+]([O-])c1cc(-c2ccccc2)cc([N+](=O)[O-])c1O,inactive: -4.83%
14,CCn1cc(CNC(=O)CCc2ccc(OC)cc2)cn1,inconclusive: 43.2%
15,CCCN1C(=O)CC(c2ccco2)Sc2ccccc21 (stereo unspecified),inconclusive: 55.2%
16,C=CCc1ccc(OCC(O)CN2CCN(Cc3ccccc3)CC2)c(OC)c1 (stereo unspecified),inconclusive: 62.6%
17,COc1ccccc1N(O)C1CC(=O)N(c2ccc(F)cc2)C1=O (stereo unspecified),inconclusive: 40.3%
18,COC(=O)[C@H](C)NC(=O)NCc1ccc(S(N)(=O)=O)cc1,inconclusive: 58.8%
19,CC(NCc1ccc2c(c1)OCO2)C(=O)NC1CCCCC1 (stereo unspecified),inconclusive: 51%
20,COc1c(C)cc(C(=O)C2CCCN(C(=O)c3cccc(-n4cccn4)c3)C2)cc1C (stereo unspecified),inconclusive: 53.2%
21,N#Cc1cc(N2CCCCC2)c([N+](=O)[O-])cc1C#N,inactive: -2.18%
22,O=C(c1cc(COc2ccc(F)cc2Cl)on1)N1CCCC(c2ccccc2)C1 (stereo unspecified),inactive: 2.73%
23,COc1cc(S(=O)(=O)N2CCCCC2)ccc1NC(=O)c1ccccc1Cl,inconclusive: 41.6%

row,Compound,inhibition
1,O=C(CCCn1cc([N+](=O)[O-])cn1)N1CCCCC1,inconclusive: 57.2%
2,C=C(C)Cn1c(CCNC(=O)CCC)nc2ccccc21,inconclusive: 51.6%
3,CCOC(=O)N1C/C(=C\c2ccccc2)C(=O)/C(=C/c2ccccc2)C1,inactive: 1.34%
4,O=C(Cn1ncc2c(=O)oc3ccccc3c21)N1CCc2ccccc2C1,inconclusive: 43.1%
5,CCOC(=O)C(CC)n1cnc2sc3c(c2c1=O)CCC3 (stereo unspecified),inconclusive: 46%
6,CC(C)(C)c1cnnn1-c1ccc(/C=N/Nc2ccc([N+](=O)[O-])cc2)cc1,inconclusive: 40%
7,C=C(C1=CCN(S(=O)C(C)(C)C)[C@H]1CCO)c1ccccc1 (stereo partly specified),inactive: -5.4%
8,CC1=NN(c2ccc(Cl)c(C(=O)O)c2)C(=O)C1,inactive: 29.9%
9,CCOC(=O)N1CCN(C(=O)c2c(-c3ccccc3)noc2C)CC1,inactive: -4.55%
10,CC(=O)c1cccc(NC(=S)NC(=O)c2ccc(C)cc2Cl)c1,inconclusive: 47.2%
11,O=[N+]([O-])c1c(NCCO)cc(N2CCC3(CC2)OCCO3)c2nonc12,inactive: -8.02%
12,Cc1ccc2nc(NC(=O)/C=C/c3ccc4c(c3)OCO4)sc2c1,inconclusive: 56.8%
13,COc1ccc(/C(C)=N/NC(=O)CNC(=O)c2cccnc2)c(OC)c1,inactive: 3.46%
14,Cc1[nH]n(-c2ccccc2)c(=O)c1C=Nc1ccc2[nH]c(=O)[nH]c2c1,inconclusive: 48.9%
15,Cc1cccc(NC(=O)CCCN2C(=S)NC(C)(C)CC2C)c1C (stereo unspecified),inconclusive: 35.3%
16,S=c1[nH]nc(-c2ccccc2Cl)n1CC1CCCO1 (stereo unspecified),inconclusive: 51.6%
17,Nc1c2c(nc3ccccc13)N(c1ccccc1)CC2,inconclusive: 45.3%
18,COc1ccc(-c2nc3c(-c4ccc(F)cc4)cnn3cc2C)cc1F,inconclusive: 37.1%
19,O=S(=O)(Nc1nc2ccccc2nc1NCCO)c1cccc(Cl)c1,inconclusive: 34.3%
20,O=C(CCc1nnc(-c2ccc3c(c2)OCO3)o1)N(Cc1ccncc1)CC1CCCO1 (stereo unspecified),inconclusive: 36.1%
21,COc1ccc(OCC(O)COc2ccc(OC)cc2)cc1,inconclusive: 33.7%
22,CN(C)c1ccc(N=Cc2ccco2)cc1,inconclusive: 61%
23,Cc1ccccc1C(=O)O/N=C1\CCS(=O)(=O)c2sccc21,inactive: 1.21%

row,Compound,inhibition
1,Cn1c(=O)c2c(nc(NN=C3CCCCC3)n2C)n(C)c1=O,inconclusive: 36.6%
2,O=C(NCc1ccco1)c1c(F)c(F)c(F)c(C(=O)NCc2ccco2)c1F,inconclusive: 34.4%
3,O=C1CSC(c2cccs2)N1c1ccccc1 (stereo unspecified),inconclusive: 40.9%
4,COc1cc2c(cc1OC)CN(C(=O)c1ccc(OC)c([N+](=O)[O-])c1)CC2,inconclusive: 35%
5,Cc1cc2n(c1)CCn1c(C)ccc1-2,inconclusive: 33.4%
6,O=C1OC(c2cccs2)=N/C1=C/c1ccc(-c2cccc(C(=O)O)c2)o1,inconclusive: 36.5%
7,O=C(CN1CCOCC1)Nc1ccc2c(c1)OCO2,inconclusive: 33.2%
8,Cc1cc(C(=O)N2CCCC(CO)(Cc3ccc(F)cc3)C2)c(C)o1 (stereo unspecified),inconclusive: 37.7%
9,Cc1cccc(NS(=O)(=O)c2ccc(C3CCCCC3)cc2)n1,inconclusive: 46.8%
10,Cn1cccc1CC(=O)N/N=C/C=C/c1ccco1,inconclusive: 58.4%
11,O=C1NC(=S)N/C1=C\c1cccc([N+](=O)[O-])c1,inactive: 0.47%
12,CCn1c(C)nc2cc(C(=O)N/N=C/c3cccc(OC)c3O)ccc21,inconclusive: 48.1%
13,CC1CCN(C(=O)CSc2nnc(-c3ccc(S(=O)(=O)N4CCOCC4)cc3)n2C)CC1,inconclusive: 34.1%
14,Cc1nn(-c2ccccc2)c(N)c1N=Nc1ccccc1,inconclusive: 38.8%
15,CCC(=O)Nc1c2c(nn1-c1ccccc1C)CSC2,inconclusive: 50.8%
16,CCOc1ccc2nc(NC(=O)C3CCCN(S(=O)(=O)c4c(C)noc4C)C3)sc2c1 (stereo unspecified),inactive: -3.03%
17,CCOC(=O)CSc1nc(C2CC2)nc2ccccc12,inconclusive: 25.3%
18,Cc1nonc1NC(=O)N1CCCC1,inconclusive: 36.8%
19,COc1ccc(CCNC(=O)CCCc2ccccc2)cc1OC,inactive: 1%
20,COc1cccc2cc(C(C)N(CCCN3CCOCC3)C(=S)Nc3cc(C)cc(C)c3)oc12 (stereo unspecified),inconclusive: 48%
21,Nc1nc(CN2CCN(Cc3ccccc3)CC2)nc(Nc2ccccc2)n1,inconclusive: 46.6%
22,N#CC(=C=[N-])c1nc2ccccc2nc1-[n+]1cccc(NC(=O)c2cccs2)c1,inconclusive: 46.5%
23,COc1ccc(/C=C2/C(=O)N=C(N)N2C)cc1OC,inactive: -1.18%

# Among those listed so far, 6 contain a thiophene ring, fused or not:
row,Compound,inhibition
5,C=CCN1CN(S(=O)(=O)c2cccs2)c2nc3ccccc3nc21,inconclusive: 38.7%
5,CCOC(=O)C(CC)n1cnc2sc3c(c2c1=O)CCC3 (stereo unspecified),inconclusive: 46%
23,Cc1ccccc1C(=O)O/N=C1\CCS(=O)(=O)c2sccc21,inactive: 1.21%
3,O=C1CSC(c2cccs2)N1c1ccccc1 (stereo unspecified),inconclusive: 40.9%
6,O=C1OC(c2cccs2)=N/C1=C/c1ccc(-c2cccc(C(=O)O)c2)o1,inconclusive: 36.5%
22,N#CC(=C=[N-])c1nc2ccccc2nc1-[n+]1cccc(NC(=O)c2cccs2)c1,inconclusive: 46.5%

# Remaining list, next part

row,Compound,inhibition
1,COc1cc(C(=S)N2CCOCC2)cc(OC)c1OC(=O)c1cc([N+](=O)[O-])cc([N+](=O)[O-])c1,inconclusive: 35.4%
2,CCC(C)(C)n1nnnc1C(c1cc2cc(OC)ccc2[nH]c1=O)N1CCc2ccccc21 (stereo unspecified),inactive: 3.72% and inactive: -1.49%
3,O=C(CCCO)NC1Cc2ccccc2C1,inconclusive: 40.2%
4,COc1cc(-c2nnc3sc(Cc4ccccc4)nn23)cc(OC)c1OC,inconclusive: 60.9%
5,COc1cccc(/C=N/NC(=O)c2[nH]c(C)c(C(=O)N/N=C/c3cccc(OC)c3)c2C)c1,inconclusive: 42.5%
6,CCN=c1scc(C)n1/N=C/c1cc(Br)c(O)c(Br)c1,inconclusive: 64.3%
7,CCn1c(SCC(=O)N/N=C/C=C/c2ccco2)nc2ccccc21,inconclusive: 44.5%
8,COC(=O)C1=C(C)N(c2cccc3ccccc23)C(=O)C1,inconclusive: 54.3%
9,CCn1cc(/C=N/NS(=O)(=O)c2ccc(OC)cc2)c(C)n1,inconclusive: 15.8%
10,NC(N)=NS(=O)(=O)c1ccc(NC(=S)NC(=O)/C=C/c2ccco2)cc1,inconclusive: 57.1%
11,Cn1c(=S)n(/N=C/c2cccs2)c2ccccc21,inconclusive: 52.7%
12,CN(C)S(=O)(=O)c1ccc2c(c1)nc(CCC(=O)Nc1ccc3c(c1)OCO3)n2C,inconclusive: 38.9%
13,CCS(=O)(=O)CCn1c([N+](=O)[O-])cnc1C,inconclusive: 45.4%
14,O=C(O)CC1S/C(=N\N=C2CCCCCCC2)N(c2ccccc2)C1=O (stereo unspecified),inconclusive: 35.6%
15,Cc1ccc(C)c2[nH]c(=O)c(C(c3nnnn3Cc3ccco3)N3CCc4ccccc4C3)cc12 (stereo unspecified),inconclusive: 46%
16,CCOc1ccc(S(=O)(=O)N(C)c2ccc(OCC(=O)NCc3cccnc3)cc2)cc1,inconclusive: 36%
17,COc1cc(/C=C2/C(=O)NN(c3cccc(C)c3)C2=O)ccc1OC(=O)c1ccco1,inconclusive: 48.3%
18,C/C(=C\C(=S)Nc1ccccc1)Nc1ccc2ccccc2c1,inconclusive: 54.9%
19,COc1cccc(N=Nc2c(=O)[nH]n3c(=O)c4c([nH]c23)CCC4)c1,inconclusive: 63.4%
20,CC/C(C)=N/Nc1ccc(S(=O)(=O)N2CCCC2)cc1[N+](=O)[O-],inactive: 0.9%
21,CSCCOC(=O)c1[nH]c2c(c1C)C(=O)CC(c1ccco1)C2 (stereo unspecified),inconclusive: 43.9%
22,O=C1OC(Nc2cc(Br)cc3cccnc23)c2ccccc21 (stereo unspecified),inconclusive: 36.2%
